# In PMC12890168:
# By UniProt entry, the sequences of proteins in these tests, tags left out.
# UniProt Q16611: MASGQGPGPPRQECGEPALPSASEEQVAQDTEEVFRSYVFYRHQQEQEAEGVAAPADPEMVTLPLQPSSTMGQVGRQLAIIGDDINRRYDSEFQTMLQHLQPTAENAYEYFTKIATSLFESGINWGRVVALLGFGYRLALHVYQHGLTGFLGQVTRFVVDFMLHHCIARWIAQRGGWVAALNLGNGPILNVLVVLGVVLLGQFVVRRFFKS
# B1: OmpA of Chlamydia trachomatis serovar L2, made by the bacteria during infection of HeLa cells (protein, UniProt P06597 23-394)
# chain: LPVGNPAEPSLMIDGILWEGFGGDPCDPCTTWCDAISMRMGYYGDFVFDRVLQTDVNKEFQMGAKPTTATGNAAAPSTCTARENPAYGRHMQDAEMFTNAAYMALNIWDRFDVFCTLGATSGYLKGNSASFNLVGLFGDNENHATVSDSKLVPNMSLDQSVVELYTDTTFAWSAGARAALWECGCATLGASFQYAQSKPKVEELNVLCNAAEFTINKPKGYVGQEFPLDLKAGTDGVTGTKDASIDYHEWQASLALSYRLNMFTPYIGVKWSRASFDADTIRIAQPKSATTVFDVTTLNPTIAGAGDVKASAEGQLGDTMQIVSLQLNKMKSRKSCGIAVGTTIVDADKYAVTVETRLIDERAAHVNAQFRF
# Biological target: BAK (human (endogenous in HeLa)) (UniProt Q16611)
# Test: affinity purification with mass spectrometry; SILAC-labelled HeLa cells, Ctr-infected 24 h or uninfected, with or without staurosporine and caspase inhibitor; 1% CHAPS lysates; BAK precipitated with BAK(aa23-38) or BAK(Ab-1) (active BAK) and protein G agarose; LC-MS/MS
binder,measurement,value
B1,binding,binds

# No constants are given. Whether binding was seen depends on the method and setting. Binding seen in cells or lysates may run through a third protein. A yes stands for co-enrichment or nearness to the bait. Other partners may have been found.
